Data from PMC9029656.
No constants are given. Whether binding was seen depends on the method and setting.

T1: prohibitin 1 (PHB1), endogenous in human blood monocytes (human (endogenous in blood monocytes)) (UniProt P35232)
T1 sequence: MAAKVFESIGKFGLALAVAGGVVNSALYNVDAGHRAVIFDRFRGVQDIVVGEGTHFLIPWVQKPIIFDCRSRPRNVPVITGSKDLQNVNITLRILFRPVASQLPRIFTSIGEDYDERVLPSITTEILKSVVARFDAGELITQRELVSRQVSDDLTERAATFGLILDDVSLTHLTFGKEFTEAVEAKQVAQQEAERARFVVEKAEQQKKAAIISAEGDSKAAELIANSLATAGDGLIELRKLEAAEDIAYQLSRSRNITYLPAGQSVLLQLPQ


Biological target: T1, prohibitin 1 (PHB1), endogenous in human blood monocytes (human (endogenous in blood monocytes))
Assay: flow cytometry on cells; competition: unlabelled peptides (2.5–20 μg/mL, four concentrations) against biotinylated wild-type NW peptide (0.05 μg/mL) on live blood monocytes; percent inhibition from geometric mean fluorescence intensity; only the binder purified

binding	Binder
no binding	NWYLPWAGTNDW [NW peptide with leucine (L) at position 7 replaced by alanine]
no binding (tested: 20 μg/mL)	NWYLPWLGTNDA [NW peptide with tryptophan (W) at position 12 replaced by alanine]
no binding	NWYAPWLGTNDW [NW peptide with leucine (L) at position 4 replaced by alanine]
no binding (tested: 20 μg/mL)	NAYLPWLGTNDW [NW peptide with tryptophan (W) at position 2 replaced by alanine]
no binding (tested: 20 μg/mL)	NWYLPALGTNDW [NW peptide with tryptophan (W) at position 6 replaced by alanine]
